We go through 64 substances from patent US5162305 (dated 1992).

*: point of attachment. Tos = Cc1ccc(S(=O)(=O)*)cc1; ClZ = O=C(OCc1ccccc1Cl)*; Boc = CC(C)(C)OC(=O)*; OcHex = C1CCC(O*)CC1; OBn = c1ccc(CO*)cc1; Bn = c1ccc(C*)cc1; NHNH2 = NN*

One data set is described as follows: general procedure: solution-phase peptide synthesis; azide method (isoamyl nitrite/HCl-dioxane); OSu active esters; TFA-ONp (p-nitrop). As to conditions: coupling step.
“Boc Gly-Ser(Bzl)-Asn-Leu-Ser(Bzl)-Thr(Bzl)-Asp--OEt” gave a step yield of 83.1%.
The same measure, in the same setting: the same measure for “Boc-8-Ala-Ser(Bzl)-Asn-Leu-Ser(Bzl)-Thr(Bzl)-Asp--OEt”: 90.4%; for “Boc-AK(ClZ)LQT(Bn)PR(Tos)T(Bn)D(OcHex)VGAGT(Bn)P-NH2”: 97.2%.
“Boc-ALS(Bn)QE(OcHex)LGK(ClZ)LQT(Bn)PQT(Bn)D(OcHex)VGAGT(Bn)P-NH2” registered a step yield of 96.1%.
The same measure, in the same setting: the same measure for “Boc-ALS(Bn)QE(OcHex)LNK(ClZ)LQT(Bn)PQT(Bn)D(OcHex)VGAGT(Bn)P-NH2”: 96.7%.
With “Boc-ALS(Bn)QE(OcHex)LNNLQT(Bn)PQT(Bn)D(OcHex)VGAGT(Bn)P-NH2”, the step yield was 80.8%.
“Boc-Abu-Asn-Leu-Ser(Bzl)-Thr(Bzl)-Cec--OCH3”: the step yield came out at 67.9%.
The same measure, in the same setting: the same measure for “Boc-Acp-Asn-Leu-Ser(Bzl)-Thr(Bzl)-Asp--OEt”: 78.5%; for “Boc-Acp-Asn-Leu-Ser(Bzl)-Thr(Bzl)-Glu--OCH3”: 86.7%.
Still for that read-out and setting: the result for “Boc-Asn-Leu-Ser(Bzl)-Thr(Bzl)-Lys(COCH2 CH2 COOH)--OCH3” reads 71.4%.
Still for that read-out and setting: the result for “Boc-Asn-Lys(Cl-Z)-Leu-Gln-Thr(Bzl)-Tyr(Cl2 -Bzl)-Pro-Gln-Thr(Bzl)-Asp(OcHex)-Val-Gly-Ala-Gly-Thr(Bzl)-Pro--NH2” reads 86.8%.
In the case of Boc-D(OEt)VGAGT(Bn)P-NH2, the step yield came to 86.2%.
“Boc-D(OcHex)K(ClZ)LQT(Bn)PQT(Bn)D(OcHex)VGAGT(Bn)P-NH2” showed a step yield of 71.7%.
The same measure, in the same setting: the result for “Boc-D(OcHex)K(ClZ)LQT(Bn)PR(Tos)T(Bn)D(OcHex)VGAGT(Bn)P-NH2” reads 98.3%; that for Boc-D(OcHex)VGAGT(Bn)P-NH2, 83.0%.
“Boc-E(OBn)LHGLQT(Bn)PGT(Bn)D(OcHex)VGAGT(Bn)P-NH2” yielded a step yield of 78.9%.
As to “Boc-E(OBn)LHK(ClZ)LQT(Bn)LPR(Tos)T(Bn)D(OcHex)VGAGT(Bn)P-NH2”, the step yield amounted to 73.0%.
On to “Boc-E(OBn)LHK(ClZ)LQT(Bn)PGT(Bn)D(OcHex)VGAGT(Bn)P-NH2”, for which the step yield came to 70.4%.
On the same count and under the same terms, the result for “Boc-E(OEt)LHK(ClZ)LQT(Bn)PR(Tos)T(Bn)D(OEt)VGAGT(Bn)P-NH2” reads 96.3%; that for “Boc-E(OcHex)LHGLQT(Bn)PR(Tos)T(Bn)D(OcHex)VGAGT(Bn)P-NH2”, 91.1%.
On the same count and under the same terms, the result for “Boc-E(OcHex)LHK(ClZ)LQT(Bn)PQT(Bn)D(OBn)VGAGT(Bn)P-NH2” reads 95.9%; that for “Boc-E(OcHex)LHK(ClZ)QT(Bn)PQT(Bn)D(OBn)VGAGT(Bn)P-NH2”, 91.0%; that for “Boc-E(OcHex)LHK(ClZ)QT(Bn)PR(Tos)T(Bn)D(OcHex)VGAGT(Bn)P-NH2”, 92.2%.
The same measure, in the same setting: the same measure for “Boc-E(OcHex)LHLQT(Bn)PT(Bn)D(OcHex)VGAGT(Bn)P-NH2”: 95.0%; for “Boc-FK(ClZ)LQT(Bn)PR(Tos)T(Bn)D(OcHex)VGAGT(Bn)P-NH2”: 97.2%; for “Boc-GK(ClZ)LQT(Bn)PNT(Bn)D(OcHex)VGAGT(Bn)P-NH2”: 85.7%.
In turn, “Boc-GK(ClZ)LQT(Bn)PQT(Bn)D(OcHex)VGAGT(Bn)P-NH2” registered a step yield of 62.9%.
Same read-out and setting: the same measure for “Boc-GK(ClZ)LQT(Bn)PR(Tos)T(Bn)D(OcHex)VGAGT(Bn)P-NH2”: 92.0%.
“Boc-GK(ClZ)LQT(Bn)Y(Bn)PR(Tos)T(Bn)D(OBn)VGAGT(Bn)P-NH2” had a step yield of 94.6%.
“Boc-GLQT(Bn)PGT(Bn)D(OcHex)VGAGT(Bn)P-NH2” yielded a step yield of 81.2%.
On the same count and under the same terms, the same measure for “Boc-GLQT(Bn)PR(Tos)T(Bn)D(OcHex)VGAGT(Bn)P-NH2”: 95.0%; for “Boc-GLS(Bn)QE(OBn)LHGLQT(Bn)PGT(Bn)D(OcHex)VGAGT(Bn)P-NH2”: 78.9%; for “Boc-GLS(Bn)QE(OcHex)LHGLQT(Bn)PR(Tos)T(Bn)D(OcHex)VGAGT(Bn)P-NH2”: 97.9%.
On the same count and under the same terms, the same measure for “Boc-GNLQT(Bn)PQT(Bn)D(OcHex)VGAGT(Bn)P-NH2”: 78.4%; for Boc-GS(Bn)NL-OEt: 87.7%; for “Boc-Gln-Glu(OBzl)-Leu-His-Lys(Bz)-Leu-Gln-Thr(Bzl)-Tyr(Bzl)-Pro-Arg(Tos)-Thr(Bzl)-Asp(OBzl)-Val-Gly-Ala-Gly-Thr(Bzl)-Pro--NH2”: 90.9%.
Same read-out and setting: the same measure for “Boc-Gln-Glu(OcHex)-Leu-Asn-Lys(Cl-Z)-Leu-Gln-Thr(Bzl)-Tyr(Cl2-Bzl)-Pro-Gln-Thr(Bzl)-Asp(OcHex)-Val-Gly-Ala-Gly-Thr(Bzl)-Pro--NH2”: 89.8%.
On to “Boc-Gln-Glu(OcHex)-Leu-Gln-Lys(Cl-Z)-Leu-Gln-Thr(Bzl)-Pro-Arg(Tos)-Thr(Bz)-Asp(OcHex)-Val-Gly-Ala-Gly-Thr(Bzl)-Pro--NH2”, for which the step yield came to 93.2%.
The same measure, in the same setting: the result for “Boc-Gln-Glu(OcHex)-Leu-Gly-Lys(Cl-Z)-Leu-Gln-Thr(Bzl)-Tyr(Cl-Bzl)-Pro-Gln-Thr(Bzl)-Asp(OcHex)-Val-Gly-Ala-Gly-Thr(Bzl)-Pro--NH2” reads 89.3%.
The same measure, in the same setting: the same measure for “Boc-Gln-Glu(OcHex)-Leu-His(Tos)- Lys(Cl-Z)-Leu-Gln-Thr(Bzl)-Pro-Arg(Tos)-Thr(Bzl)-Asp(OcHex)-Val-Gly-Ala-Gly-Thr(Bzl)-Pro--NH2”: 91.4%; for “Boc-Gln-Glu(OcHex)-Leu-His(Tos)-Lys(Cl-Z)-Gln-Thr(Bzl)-Tyr(Cl2 -Bzl)-Pro-Arg(Tos)-Thr(Bzl)-Asp(OBzl)-Val-Gly-Ala-Gly-Thr(Bzl)-Pro--NH2”: 92.3%; for “Boc-Gln-Glu(OcHex)-Leu-His(Tos)-Lys(Cl-Z)-Leu-Gln-Thr(Bzl)-D-Tyr(Cl2 -Bzl)-Pro-Arg(Tos)-Thr(Bzl)-Asp(OcHex)-Val-Gly-Ala-Gly-Thr(Bzl)-Pro--NH2”: 98.2%.
On to “Boc-Gln-Glu(OcHex)-Leu-His(Tos)-Lys(Cl-Z)-Leu-Gln-Thr(Bzl)-Pro-Arg(Tos)-Thr(Bzl)-Asp(OEt)-Val-Gly-Ala-Gly-Thr(Bzl)-Pro--NH2”, for which the step yield is given as 94.1%.
As to “Boc-Gln-Glu(OcHex)-Leu-His(Tos)-Lys(Cl-Z)-Leu-Gln-Thr(Bzl)-Pro-Asn-Thr(Bzl)-Asp(OcHex)-Val-Gly-Ala-Gly-Thr(Bzl)-Pro--NH2”, the step yield was found to be 86.9%.
Still for that read-out and setting: the result for “Boc-Gln-Glu(OcHex)-Leu-His(Tos)-Lys(Cl-Z)-Leu-Gln-Thr(Bzl)-Pro-Thr(Bzl)-Asp(OBzl)-Val-Gly-Ala-Gly-Thr(Bzl)-Pro--NH2” reads 94.7%; that for “Boc-Gln-Glu(OcHex)-Leu-His(Tos)-Lys(Cl-Z)-Leu-Gln-Thr(Bzl)-Tyr(Cl2-Bzl)-Pro-Gln-Thr(Bzl)-Asp(OcHex)-Val-Gly-Ala-Gly-Thr(Bzl)-Pro--NH2”, 88.6%.
Still for that read-out and setting: the same measure for “Boc-Gln-Glu(OcHex)-Leu-His-Lys(cl-Z)-Gln-Thr(Bzl)-Pro-Gln-Thr(Bzl)-Asp(OBzl)-Val Gly-Ala-Gly-Thr(Bzl)-Pro--NH2”: 90.9%.
“Boc-Gln-Glu(OcHex)-Leu-Lys(Cl-Z)-Leu-Gln-Thr(Bzl)-Tyr(Cl2-Bzl)-Pro-Gln-Thr(Bzl)-Asp(OcHex)-Val-Gly-Ala-Gly-Thr(Bzl)-Pro--NH2” came in with a step yield of 95.4%.
The substance “Boc-Gln-Glu(OcHex)-Leu-Tyr(Cl2-Bzl)-Lys(Cl-Z)-Leu-Gln-Thr(Bzl)-Pro-Gln-Thr(Bzl)-Asp(OcHex)-Val-Gly-Ala-Gly-Thr(Bzl)-Pro--NH2” returned a step yield of 94.1%.
The same measure, in the same setting: the result for “Boc-Gln-Thr(Bzl)-D-Tyr(Cl2 -Bzl)-Pro-Arg(Tos)-Thr(Bzl)-Asp(OcHex)-Val-Gly-Ala-Gly-Thr(Bzl)-Pro--NH2” reads 92.8%; that for “Boc-Gln-Thr(Bzl)-Pro-Gln-Thr(Bzl)-Asp(OBzl)-Val-Gly-Ala-Gly-Thr(Bzl)-Pro-- NH2”, 89.8%; that for “Boc-Gln-Thr(Bzl)-Tyr(Cl2 -Bzl)-Pro-Arg(Tos)-Thr(Bzl)-Asp(OBzl)-Val-Gly-Ala-Gly-Thr(Bzl)-Pro--NH2”, 97.3%.
Still for that read-out and setting: the same measure for “Boc-Gln-Thr(Bzl)-Tyr(Cl2 -Bzl)-Pro-Gln-Thr(Bzl)-Asp(OcHex)-Val-Gly-Ala-Gly-Thr(Bzl)-Pro--NH2”: 90.8%.
Same read-out and setting: the result for “Boc-Glu(OBzl)-Leu-His-Lys(Bz)-Leu-Gln-Thr-(Bzl)-Tyr(Bzl)-Pro-Arg(Tos)-Thr(Bzl)-Asp-(OBzl)-Val-Gly-Ala-Gly-Thr(Bzl)-Pro--NH2” reads 75.1%; that for “Boc-Glu(OcHex)-Leu-His(Tos)-Lys(Cl-Z)-Leu-Gln-Thr(Bzl)-D-Tyr(Cl2 -Bzl)-Pro-Arg(Tos)-Thr(Bzl)-Asp(OcHex)-Val-Gly-Ala-Gly-Thr(Bzl)-Pro--NH2”, 92.9%.
For the substance “Boc-Glu(OcHex)-Leu-His(Tos)-Lys(Cl-Z)-Leu-Gln-Thr(Bzl)-Pro-Arg(Tos)-Thr(Bzl)-Asp(OcHex)-Val-Gly-Ala-Gly-Thr(Bzl)-Pro--NH2”, the step yield is 95.7%.
Substance “Boc-Gly-Leu-Ser(Bzl)-Gln-Glu(OcHex)-Leu-His(Tos)-Lys(Cl-Z)-Leu-Gln-Thr(Bzl)-Pro-Arg(Tos)-Thr(Bzl)-Asp(OcHex)-Val-Gly-Ala-Gly-Thr(Bzl)-Pro--NH2” yielded a step yield of 96.8%.
On the same count and under the same terms, the result for “Boc-Gly-Lys(Cl-Z)-Leu-Gln-Thr(Bzl)-Tyr(Cl-Bzl)-Pro-Gln-Thr(Bzl)-Asp(OcHex)-Val-Gly-Ala-Gly-Thr(Bzl)-Pro--NH2” reads 91.5%; that for “Boc-Gly-Ser(Bzl)-Asn-Leu-Ser(Bzl)-Thr(BzI)-Glu--OBzl”, 79.4%; that for “Boc-His(Tos)-Lys(Cl-Z)-Gln-Thr(Bzl)-Tyr(Cl2 -Bzl)-Pro-Arg(Tos)-Thr(Bzl)-Asp(OBzl)-Val-Gly-Ala-Gly-Thr(Bzl)-Pro--NH2”, 93.6%.

Staying with this data set, now noted: cyclisation step.
Substance “-COCH2 CH2 Co-Asn-Leu-Ser(Bzl)-Thr(Bzl)-Lys--OCH3” yielded a cyclisation yield of 34.9%.

The data set is the same for the next values; noted with them: late stage modification step.
For the substance Boc-8-Ala-Ser(Bzl)-Asn-Leu--N2 H3, the step yield is listed as 58.7%.
On to Boc-Abu-Ser(Bzl)-Asn-Leu--N2 H3, for which the step yield came to 76.1%.
For Boc-GS(Bn)NL-NHNH2, the step yield was found to be 79.0%.
